Measurements as given in PMC6051343.
Results are given in words; binding and its absence hold for the method and conditions named. In cells and extracts the contact can be indirect. A yes stands for co-enrichment or nearness to the bait. Other partners may have been found.

B1: Psm1 (protein, UniProt O94383 1-1228)
chain: MGRLLRLEVENFKSYRGHQIIGPFEDFTSIIGPNGAGKSNLMDAISFVLGVKSSHLRSTNVKELIYRGKILQRDNTDFTDSSNPTTAYVKLMYELDNGEQREYKRAITPSGATEYKIDEEIVTFSEYCGSLQKENILVRARNFLVFQGDVETIASQSPLELSKLVEQISGSLEYKSEYDKSKDEQDKAVNLSAHSFNKKRGINAELRQYQEQKTEAERYQSQKEKRDSAQLVYLLWKLFHLEKSISSNMAEVTRLKADSIQLIERRDENTKEIEKLKEKEGSIRRNLLAFDRKVRKQEKLIASKRPELISIAEKALESKSNLRKIQRKAAEIEKDYSDQASTLQVLENQLTSLSAAEKEFLKDMQEKEQLKGLRLLPEDKEEYEGLRSEADKLNSNLLFKLQTLNRNIKVTSQSKDSLTSIVGDLESKIKSLHESVSSLDTERADLLAKINEKIESLELEKHDQQKKRLTYSELFHKTQELNEELQSCLQKILEASADRNESKQDAKKREALYALKRIYPEVKGRIIDLCTPTQKKYESAIAAALGKNFDAIVVETQAVAKECIDYIKEQRIGIMTFFPMDTIAASPVNQKFRGTHKGARLAIDVLNFESEYERVMISAVGNTLICDSMTVARDLSYNKRLNAKTVTLEGTVIHKTGLITGGSSNNRSAKHWDDHDFDLLTQTKDRLMHQIGEIEYQKSSCVITESDTVKLHSLESEISLLKDKYTVVSRSVEDKKKEIGHYESLIKEKQPHLSELEMELRNFVKSRDELQIQVEKVEEKIFSGFCKRIGISDIHTYDEIHRTFTQSFTQKQLEFTKQKSLLENRISFEKQRVSDTRLRLERMHKFIEKDQESIDNYEQNREALESEVATAEAELELLKEDFASENSKTEKILLAASEKKLVGKRLVSELTKLSGNITLLESEIDRYVSEWHAILRKCKLEDIDVPLREGSLTSIPIDDVSNSGDITMGEEPSEPVINFEKFGVEVDYDELDEELRNDGSESMASVLQEKLREYSEELDQMSPNLRAIERLETVETRLAKLDEEFAAARKAAKNAKERFNAVKQKRLQKFQAAFSHISEQIDPIYKELTKSPAFPLGGTAYLTLDDLDEPYLGGIKFHAMPPMKRFRDMDQLSGGEKTMAALALLFAIHSYQPSPFFVLDEIDAALDQTNVTKIANYIRQHASSGFQFVVISLKNQLFSKSEALVGIYRDQQENSSRTLSINLEGYVE
modifications: mono-methylated on K536 and K1200 (found by mass spectrometry)
B2: Rec8 (protein, UniProt P36626 1-561)
chain: MFYNQDVLTKEKGGMGVIWLAATLGSKHSLRKLHKKDIMSVDIDEACDFVAFSPEPLALRLSSNLMIGVTRVWAHQYSFFHSQVSTLHLRVRKELDHFTSKPFKNIDIQNEQTNPKQLLLAEDPAFIPEVSLYDAFNLPSVDLHVDMSSFTQPKENPNISVLETLPDSTSYLINTSQNYSLRNNVSSFVYEDSRAFSTEEPLDFEFDENGDIQELTKGTINSDPSLQAASQHSNLGSVQREYNSEEQESRIHMFEIDEDVLPLPVPLQSVMDSEHNENEPRALKRRKVQKLLEPDENIELSTRTLSQWRKNYVERMIALEATKYVRRRGASSAKKKELNKFFDWESFHPLLKPWIEKLKPSNNTPSEIDDVLRNIDTSEVEVGRDVQGELGLNIPWNTSSRSNSAINSKSHSQTGSEHSTPLLDTKYRKRLPHSPSMPSRVEFLPALESSQFHETLNSELSLQLSDDFVLYKNTQEENAHLMLSMEKECANFYEYAKTAIYENNGRITFSSLLPNDLKRPVVAQAFSHLLSLATKSAFLVKQDKPYSEISVSLNLKSTDAI
B3: Eme1 (protein, UniProt Q9C103 1-735)
chain: MTLQSTDSAIVIDSEADVDISSSQASPSKDNIALSEHNVITVLDTPQRSTQCDSLLKSFSTPLVSGSEDVLPSPRDALNITNKKSVTDNLLLSLTSSNQSTNTNLNPSSRVEIINLNSSPPNSLSSQPKHQEFHLFHTPTIPRTTQLSSKTSSPIVIPDDNEQVASPLSKKAASLTSSPLKDFQSSPPLSTVLQKSHSLHDILLDTNDDDHFPFTQSPLTKTKSFNDALTSSSSILKPCMPSIASPTSNRLSHAPSTPNLFPNQDSSNTIDLINNRSKTSVENQERTFNLTSDVHLDSPTSPSKHSSIEPNTSQEDSFQELPSLNKLSIQSRAFKKMRLPKISRTTDTPPASTSNSNKKNLDKLKKMRKLCSRSLEPYELDSNTQRKRKRYEDSLKKSKTLDKVDSLNRKMAKELDRKNSKELQKINKVKRTKEECLSEIILLSPDDWASSWYSTVRSQLDSYNCQFVVNSNQPKDSIMWKRKVNNVFNSSTNRFELSIEHEQIEPFALLRLKCRDFIKYIEEDQADTFFHEMSEKFKGCKLILLLEGIPNYFKSLKAELNRQYAAAVNSGTRPLLFGSLSKYQNFTKEKLESEIVRFSFEHSILINTSNDEKETAQWIVSFTGDIALSRYKHFSKFSARASTTEIGHVKSADRIENSLNFMLRQILRVTPNIANAICDQFDSIPSLIHHLKTHGEESLTNVVIQSSISERNLGPVLSRRIYNTFLCKEASSDAP

These binders were tested against T1, Rec11–TAP (S. pombe) (UniProt Q92380) (assay: affinity purification with mass spectrometry; tandem affinity purification of Rec11–TAP (IgG Sepharose, TEV cleavage, calmodulin Sepharose) from meiotically induced S. pombe cells harvested 2.5–3.5 h after induction; IPP150 buffer (50 mM Tris-HCl pH 8.0, 150 mM NaCl, 10% glycerol, 0.1% NP-40); eluate silver stained and analysed by mass spectrometry).
T1 sequence: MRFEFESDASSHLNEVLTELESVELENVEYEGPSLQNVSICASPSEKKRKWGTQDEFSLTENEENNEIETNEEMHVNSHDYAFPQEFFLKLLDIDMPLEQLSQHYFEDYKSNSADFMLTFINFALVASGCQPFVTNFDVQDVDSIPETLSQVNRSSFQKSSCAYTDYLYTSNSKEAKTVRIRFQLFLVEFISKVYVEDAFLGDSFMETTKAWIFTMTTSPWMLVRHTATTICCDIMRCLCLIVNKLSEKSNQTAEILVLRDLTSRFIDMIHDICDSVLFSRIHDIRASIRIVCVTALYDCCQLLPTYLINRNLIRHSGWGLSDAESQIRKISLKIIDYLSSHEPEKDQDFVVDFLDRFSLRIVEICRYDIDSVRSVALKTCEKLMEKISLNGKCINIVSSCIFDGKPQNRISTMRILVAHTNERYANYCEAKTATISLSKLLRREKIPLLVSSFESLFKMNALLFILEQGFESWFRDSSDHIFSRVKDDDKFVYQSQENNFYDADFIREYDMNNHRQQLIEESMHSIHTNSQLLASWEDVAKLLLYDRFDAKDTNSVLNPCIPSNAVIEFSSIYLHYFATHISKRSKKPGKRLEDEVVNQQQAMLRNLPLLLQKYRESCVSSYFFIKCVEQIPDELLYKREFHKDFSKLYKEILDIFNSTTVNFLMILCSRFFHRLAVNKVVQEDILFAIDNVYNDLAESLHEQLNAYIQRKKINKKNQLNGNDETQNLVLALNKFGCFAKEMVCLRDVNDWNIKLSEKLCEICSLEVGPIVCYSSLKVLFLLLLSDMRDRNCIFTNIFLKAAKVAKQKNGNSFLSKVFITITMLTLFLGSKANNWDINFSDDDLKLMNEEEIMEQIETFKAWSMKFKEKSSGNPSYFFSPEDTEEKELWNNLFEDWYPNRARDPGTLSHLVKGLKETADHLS

binding, binds:
B1
B2
B3
